In publication PMC2279149, “Mouse N-acetyltransferase type 2, the homologue of human N-acetyltransferase type 1” (Biochemical Pharmacology, 2008):

Target: T1, mouse Nat2 (Mus musculus, UniProt P50295)
T1 construct: The mouse Nat2 open-reading frame [22] was sub-cloned into pET28b(+); hexa-histidine tag (His-tag, from pET28b(+)) (N, cleaved yes); made in house; host or cells: Escherichia coli Rosetta(DE3)pLysS
T1 sequence (P50295 1-290): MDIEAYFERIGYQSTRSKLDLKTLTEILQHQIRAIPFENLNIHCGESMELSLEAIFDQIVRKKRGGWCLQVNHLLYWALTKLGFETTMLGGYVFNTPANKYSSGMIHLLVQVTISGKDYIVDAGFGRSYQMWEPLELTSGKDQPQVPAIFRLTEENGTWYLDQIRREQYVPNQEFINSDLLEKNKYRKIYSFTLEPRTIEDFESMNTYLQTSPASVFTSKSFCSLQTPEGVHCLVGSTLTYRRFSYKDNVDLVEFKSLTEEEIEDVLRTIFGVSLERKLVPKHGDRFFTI
Test: Inhibition of mouse Nat2 acetylation of PABA (colorimetric DMAB assay)
Format: biochemical
Details: xenobiotic oestrogens; recombinant mouse Nat2 3 ng, PABA 75 μM, AcCoA 400 μM, 37 °C; read-out: IC50 mNAT2
Method: The rates of arylamine acetylation by NATs were determined colorimetrically as previously described, but with minor modifications. Each assay contained the enzyme, arylamine substrate (see each figure legends for concentrations) and AcCoA (400 μM) in a total volume of 100 μL in assay buffer (20 mM Tris–HCl (pH 8.0), 1 mM DTT). Initially, the enzyme and substrate mixtures were pre-incubated at 25 °C for 5 min and AcCoA was added to start the reaction. The reaction was quenched using 20% (w/v) trichloroacetic acid (TCA) at different time intervals. The stopped reaction was centrifuged (16,000 × […], 10 min) to pellet the precipitated proteins. […] The absorption at 450 nm was measured with a Hitachi U-2001 UV–vis spectrophotometer, with the amount of residual substrate in the reaction was determined by comparison with a standard curve.
The inhibitory effect of steroids on the rate of acetylation of arylamines by mouse Nat2 was measured by using the colorimetric DMAB assay as described in Section 2. […] The colour was developed and measured as described in Section 2. The linear initial rate of reaction was determined and the percentage inhibition was calculated relative to the control activity measured without the inhibitor. All measurements were performed in triplicate and are expressed as mean ± standard deviation. *2% (v/v) ethanol **5% (v/v) DMSO used to dissolve the compounds in the assay.

IC50: 57 ± 3 µM
SMILES: CC/C(=C(\c1ccccc1)c1ccc(OCCN(C)C)cc1)c1ccccc1 [Tamoxifen]
